From US20170290821A1 (priority 2014, published 2017) come the findings set out here.

The nature of the data set: Cytotoxicity test (Cell Counting Kit-8), HEK293. In kind it is cell-based. The following applies: human, HEK293 cells, 293 (HEK293) cells, read-out: CC50 (50% cytotoxicity concentration). Here is the method: First, as test compound solutions, test compounds were prepared in 1% dimethylsulfoxide-containing MEMs so that a final concentration was 1000, 100, 10, 1, 0.1, 0.01, or 0.001 μM.
Cell fluids in which MDCK cells, A549 cells, and HEK293 cells were prepared at concentrations of 6.25×10^5 cells/mL, 2.5×10^6 cells/mL, and 1.25×10^5 cells/mL in minimum essential mediums (MEMs) were added to a 96-well plate at 0.1 ml/well and the cells were seeded. The cells in the 96-well plate were cultured in a carbon dioxide incubator at 37° C. and washed with MEM the day after the seeding date. In the washed cells in the 96-well plate, 0.1 mL of each test compound solution was added to three wells for each concentration and the cells in the 96-well plate were then cultured in a carbon dioxide incubator at 37° C. for 48 hours. After the culture, a Cell Counting Kit-8 solution (commercially available from Dojindo Molecular Technologies, Inc.) was added to each well at 10 μL and culture was additionally performed at 37° C. for several hours. After the culture, an absorbance at 450 nm of a solution of each well in the 96-well plate was measured using a microplate reader. An absorbance value when a solvent (1% dimethylsulfoxide-containing MEM) was added in place of the test compound was set to 100% at which the whole cells survived. […]
Background: Tetrazolium dyes change colour on reduction, which living cells bring about.

On to `C[C@@H]1CCN(C(=O)CC#N)C[C@@H]1N(C)c1ncnc2[nH]ccc12` [Compound J1, 3-((3R,4R)-4-methyl-3-(methyl(7H-pyrrolo[2,3-d]pyrimidin-4-yl)amino)piperidin-1-yl)-3-oxopropanenitrile], for which the CC50 at 48 h was greater than 316 µM.
